Data reported in PubChem BioAssay AID1259354 (Paczesny and Yang Labs, IUPUI and University of Michigan, 2018).
Out of some 78,000 compounds screened, about 1,800 (2.3%) were called active. Inconclusive results, whose numbers are uncertain, are shown with a selection of clear calls. No stated cut-off is given here; in the data, active means inhibition above about 30%; inconclusive means mostly about 10% to 28%; inactive means weaker than that.

Amino acid sequences for entries named in this document (tags omitted). A change or cut given only in a name is not applied to a line headed by its entry.
UniProt Q01638: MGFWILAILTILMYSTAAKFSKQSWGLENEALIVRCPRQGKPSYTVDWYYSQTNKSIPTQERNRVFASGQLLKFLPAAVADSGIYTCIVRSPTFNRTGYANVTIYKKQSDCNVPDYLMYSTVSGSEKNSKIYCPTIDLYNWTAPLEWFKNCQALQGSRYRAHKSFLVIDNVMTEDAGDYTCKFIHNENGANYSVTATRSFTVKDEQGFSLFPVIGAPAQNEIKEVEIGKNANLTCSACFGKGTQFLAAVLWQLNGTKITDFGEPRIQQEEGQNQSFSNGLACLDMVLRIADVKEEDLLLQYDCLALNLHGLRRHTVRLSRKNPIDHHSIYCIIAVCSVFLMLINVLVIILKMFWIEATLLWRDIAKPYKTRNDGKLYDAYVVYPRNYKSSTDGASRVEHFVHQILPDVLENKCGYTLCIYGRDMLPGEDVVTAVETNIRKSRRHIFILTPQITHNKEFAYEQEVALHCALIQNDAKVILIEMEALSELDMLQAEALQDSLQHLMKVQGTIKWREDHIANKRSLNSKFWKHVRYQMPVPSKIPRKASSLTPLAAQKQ

The compounds below were run against Interleukin-1 receptor-like 1 (Homo sapiens) (UniProt Q01638) (assay: blocks human ST2 binding to IL-33, primary screen, biochemical, AlphaLISA (AID 1259354)). Settings: AlphaLISA ST2-Fc/biotin-IL-33 interaction, 1 h; at 17 µM, hits give high values.

Structure (SMILES)	inhibition
CCO[C@H]1COC[C@@H]1NC(=O)c1ccc(NCc2sccc2C)cc1	inconclusive: 19%
O=C1C2=C(C(c3ccccc3)=NCCN2)C(c2cccc(F)c2)N1c1ccccc1 (configuration not stated)	inconclusive: 10%
CC(C)c1ccc(Nc2nnc(Cc3ccc(Cl)cc3)c(=O)[nH]2)cc1	inactive
COCCN(Cc1cccc2cccnc12)CC1CCCN(C2Cc3ccccc3C2)C1 (configuration not stated)	inconclusive: 15%
Cc1cc(C)c(CN2CCC3(CCNC(=O)CC3)CC2)c(C)c1	inconclusive: 12%
CCc1nc(NCCN2CCOCC2)c(C#N)c2c1COC(C)(C)C2	inconclusive: 14%
O=C(NC[C@H]1O[C@@H](CO)[C@@H](O)[C@H]1N1CCN(c2ccccn2)CC1)c1ccco1	inconclusive: 12%
COc1ccc(CNC(=O)CSc2nnc(-c3cccc(OC)c3)n2C)cc1	inconclusive: 10%
COc1ccccc1N1CCN([C@H]2[C@@H]3OC[C@@H](O3)[C@@H](NCc3cnc4ccccc4c3)[C@@H]2O)CC1	active: 30%
CCn1nc(C)c(NC(=O)CN2CCCC(c3nc(C(C)C)no3)C2)c1C (configuration not stated)	inconclusive: 14%
Cc1cccc(NC(=O)c2cccc([N+](=O)[O-])c2C)c1	inconclusive: 10%
CC(C)n1c(SCC(=O)Nc2ccc(OC(F)(F)F)cc2)nc2c1c(=O)n(C)c(=O)n2C	inconclusive: 14%
Cc1ccc(C)n1CCN1CCN(CC(=O)Nc2ccc3cn[nH]c3c2)CC1	inconclusive: 22%
CCOC(=O)c1cccc(NS(=O)(=O)c2cccc3cccnc23)c1	inconclusive: 14%
Brc1ccc(CN2CCN(c3ncccn3)CC2)s1	inconclusive: 17%
O=C(CN1CCCN(Cc2cccc(Cl)c2)S1(=O)=O)NCCCc1ccccc1	inconclusive: 13%
Cc1ccc(-c2csc(-c3cc4ccc(O)cc4oc3=O)n2)cc1C	inconclusive: 15%
CN(Cc1ccccc1)Cc1cn(C[C@H]2O[C@@H](CC(=O)NCc3ccc(F)cc3)[C@H](O)[C@@H]2O)nn1	inconclusive: 19%
O=C(CC1CNCCO1)N1CCN(C(=O)c2ccccc2)CC1 (configuration not stated)	inconclusive: 11%

Structure (SMILES)	inhibition
Cc1ccc2nc(NC(=O)CSc3nc4c(c(=O)n3-c3ccccc3)SCC4)sc2c1	inconclusive: 21%
Cc1ccccc1OCc1nc(C#N)c(NCc2ccc(F)cc2)o1	active: 34%
O=C(CC1CCc2ccccc21)NCc1cccnc1N1CCOCC1 (configuration not stated)	inactive
Cc1ccsc1CN(C)C(=O)c1ccc(-c2ncn[nH]2)cc1	inconclusive: 29%
Cc1ncc2c(c1CNC(=O)c1ccc3c(c1)OCO3)CCN(C(=O)/C=C/c1ccccc1Cl)C2	inconclusive: 11%
N#Cc1c(-n2ncnc2-c2ccc(F)cc2)sc2c1CCCC2	inconclusive: 28%
O=C1NC(=O)C(Cc2ccccc2Cl)(C2CCNCC2)N1 (configuration not stated)	inactive
CCCOc1ccc(C2C(C(=O)Nc3ccccc3OC)=C(C)Nc3nnnn32)cc1OC (configuration not stated)	inconclusive: 16%
Cc1ccc(CCN2CC(C(=O)N3CCN(C)CC3)CC2=O)cc1 (configuration not stated)	inactive
COc1ccc(/C=C/C(=O)Nc2cccc(-c3nc4ncccc4o3)c2C)cc1	inconclusive: 20%
COc1ccc(Nc2ccccc2)c(C)c1	active: 37%
COc1ccc(OC)c(S(=O)(=O)Nc2ccc(F)cc2F)c1	inactive
CCN(CC)C(=O)COC1CN(CCc2ccccc2)C(=O)CN(C(=O)c2ccc3[nH]ccc3c2)C1 (configuration not stated)	inconclusive: 14%
Cc1ccc(NC(=O)c2cnc3n(c2=O)CCS3)c(Br)c1	inconclusive: 14%
CCCC1COCCN1Cc1cc(C)[nH]n1 (configuration not stated)	inactive
NC(=O)C1CCCC1C(N)=O (configuration not stated)	inactive
CCCn1c(CCCNC(C)=O)nc2ccccc21	inactive
CC(NS(=O)(=O)c1ccccc1)C(c1cccs1)N1CCN(c2ccccc2F)CC1 (configuration not stated)	inconclusive: 16%
CC(=O)c1c(C)cc(C)c(CSc2nnnn2-c2ccccc2)c1C	inconclusive: 14%

Among those listed so far, these contain two or more sulfur atoms.
Structure (SMILES)	inhibition
Cc1ccc2nc(NC(=O)CSc3nc4c(c(=O)n3-c3ccccc3)SCC4)sc2c1	inconclusive: 21%
CC(NS(=O)(=O)c1ccccc1)C(c1cccs1)N1CCN(c2ccccc2F)CC1 (configuration not stated)	inconclusive: 16%

(listing goes on)

Structure (SMILES)	inhibition
Cc1cccc(-c2nsc(SCC(=O)NC3CCCCC3)n2)c1	inconclusive: 15%
COCC(NC1CCC2(CCNCC2)CC1)c1ccnn1C (configuration not stated)	inactive
CCc1ccc(OCCCOc2ccc(/C=C3/C(=N)N4C=CSC4=NC3=O)cc2OC)cc1	inconclusive: 24%
COc1ccc(Nc2c(-c3ccc(C)o3)nc3ccccn23)cc1	inconclusive: 16%
Cc1cccc(-n2cc(CN3CCCN(C(=O)C4CCC4)CC3)cn2)c1	inactive
COc1ccc(CC(=O)Nc2ccc([C@@H](O)[C@H]3COCC(=O)N3Cc3ccc(F)cc3)cc2)cc1	inconclusive: 16%
O=[N+]([O-])c1ccccc1/C=C/c1ccc2cccc(O)c2n1	active: 41%
C[C@@H]1O[C@@H](OC[C@H]2O[C@@H](Oc3cc(O)cc4c3C(=O)C(O)(Cc3ccc(O)cc3)O4)[C@H](O)[C@@H](O)[C@@H]2O)[C@H](O)[C@H](O)[C@H]1O (some centres not stated)	inconclusive: 18%
COc1ccc(Nc2cc(C)nc(Nc3ccc(NC(=O)CC(C)C)cc3)n2)cc1	inactive
CCn1cc(C(=O)NC2CCC(C)CC2)c(=O)c2cc(S(=O)(=O)N3CCCCCC3)ccc21 (configuration not stated)	inconclusive: 21%
O=C(O)c1cccc(CN2C(=O)SC(Nc3cccc(C(=O)O)c3)C2=O)c1 (configuration not stated)	inactive
O=S(=O)(NC[C@H]1O[C@@H](CO)[C@@H](O)[C@H]1N1CCN(c2ccccn2)CC1)c1cccs1	inconclusive: 14%
Cc1ccc(F)c(C(=O)N2CCc3nnc(CCc4ccccc4)n3CC2)c1F	inconclusive: 10%
COc1ccc([N+](=O)[O-])cc1C1NN=C(c2ccccc2O)S1 (configuration not stated)	inconclusive: 13%
CCN(CC)S(=O)(=O)c1ccc(NC(=O)COc2ccc([N+](=O)[O-])cc2)cc1	inactive
C#CCn1c(=O)c2c(ncn2C)n(C)c1=O	inconclusive: 12%
CCSC1=N/C(=C2\C=Cc3ccccc3N2CC)C(=O)S1	active: 73%
CCN(c1ccccc1)S(=O)(=O)c1ccc([N+](=O)[O-])cc1	inconclusive: 17%
CCOc1ccc2nc(N=C(N)NC(=O)c3ccccc3)nc(C)c2c1	inconclusive: 22%
